Where a chain is given by its changes, count along the chain named. These are yes or no findings as the source states them, for the method shown. For some of these results: In cells and extracts the contact can be indirect. Some binding calls cover weakened binding; strength is not graded here. For some of these results: Where a sequence is shown, tags or fusion partners need not be part of it. Each block holds one binder with its values, some of them ahead of it.
Key:
[1] = biological target: IAA3/SHY2 Cys187Ser (Arabidopsis thaliana) (UniProt Q38822); assay: non-reducing SDS-PAGE
[2] = biological target: MBP-tagged IAA3/SHY2 (wild type), recombinant (Arabidopsis thaliana) (UniProt Q38822); assay: non-reducing SDS-PAGE
TIR1-GFP = biological target: T1, TIR1-GFP (UniProt Q570C0); assay: co-IP
T1 sequence: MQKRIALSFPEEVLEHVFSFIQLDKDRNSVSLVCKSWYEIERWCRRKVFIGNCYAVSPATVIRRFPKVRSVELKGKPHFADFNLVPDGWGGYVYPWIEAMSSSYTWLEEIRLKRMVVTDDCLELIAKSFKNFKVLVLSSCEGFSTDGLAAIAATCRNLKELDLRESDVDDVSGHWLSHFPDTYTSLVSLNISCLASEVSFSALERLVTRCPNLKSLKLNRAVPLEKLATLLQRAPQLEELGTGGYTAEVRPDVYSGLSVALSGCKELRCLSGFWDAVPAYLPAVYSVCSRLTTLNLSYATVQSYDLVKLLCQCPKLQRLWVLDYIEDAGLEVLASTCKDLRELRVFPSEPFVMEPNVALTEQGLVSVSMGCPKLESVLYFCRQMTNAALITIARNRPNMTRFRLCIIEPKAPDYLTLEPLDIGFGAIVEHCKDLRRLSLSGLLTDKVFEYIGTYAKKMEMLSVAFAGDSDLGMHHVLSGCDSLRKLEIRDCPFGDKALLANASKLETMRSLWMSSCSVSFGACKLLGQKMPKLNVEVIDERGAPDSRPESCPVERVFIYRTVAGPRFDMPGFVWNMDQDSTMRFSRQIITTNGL

ARF7-GFP (wild type) = biological target: T2, ARF7-GFP (wild type) (UniProt P93022); assay: co-IP
T2 sequence: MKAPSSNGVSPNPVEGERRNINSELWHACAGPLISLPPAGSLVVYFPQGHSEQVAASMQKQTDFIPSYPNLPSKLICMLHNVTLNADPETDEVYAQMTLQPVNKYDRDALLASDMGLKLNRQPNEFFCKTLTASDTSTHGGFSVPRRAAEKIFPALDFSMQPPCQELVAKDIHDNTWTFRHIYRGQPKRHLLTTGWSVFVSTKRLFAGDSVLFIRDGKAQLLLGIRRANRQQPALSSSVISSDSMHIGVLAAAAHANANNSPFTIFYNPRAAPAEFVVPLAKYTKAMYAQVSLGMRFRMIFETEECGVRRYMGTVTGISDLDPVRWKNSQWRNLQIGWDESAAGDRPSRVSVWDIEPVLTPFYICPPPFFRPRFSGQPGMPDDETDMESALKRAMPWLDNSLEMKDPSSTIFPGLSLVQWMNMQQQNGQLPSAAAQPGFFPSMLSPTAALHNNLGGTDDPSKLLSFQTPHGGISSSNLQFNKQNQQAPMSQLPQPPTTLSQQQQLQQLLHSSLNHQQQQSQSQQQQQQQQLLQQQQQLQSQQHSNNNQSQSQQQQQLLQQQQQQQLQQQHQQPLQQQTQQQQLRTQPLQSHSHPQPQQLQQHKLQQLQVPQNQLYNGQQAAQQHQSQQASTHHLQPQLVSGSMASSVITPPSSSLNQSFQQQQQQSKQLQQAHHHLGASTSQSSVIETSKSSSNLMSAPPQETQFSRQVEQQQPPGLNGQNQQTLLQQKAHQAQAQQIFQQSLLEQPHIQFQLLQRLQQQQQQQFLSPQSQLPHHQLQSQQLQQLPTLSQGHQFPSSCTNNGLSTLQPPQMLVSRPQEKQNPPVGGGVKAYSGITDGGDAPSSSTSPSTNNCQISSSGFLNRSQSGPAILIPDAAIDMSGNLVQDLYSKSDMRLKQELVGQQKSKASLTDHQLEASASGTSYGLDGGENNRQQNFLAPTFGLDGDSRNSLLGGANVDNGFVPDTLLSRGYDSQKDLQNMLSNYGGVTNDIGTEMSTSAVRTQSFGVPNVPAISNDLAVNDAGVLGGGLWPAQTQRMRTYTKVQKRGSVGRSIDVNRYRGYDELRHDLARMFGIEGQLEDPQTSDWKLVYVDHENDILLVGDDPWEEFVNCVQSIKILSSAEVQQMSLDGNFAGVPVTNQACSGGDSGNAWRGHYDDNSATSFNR

[3] = biological target: T3, TOPLESS (TPL) transcriptional co-repressor (UniProt Q94AI7); assay: co-IP
T3 sequence: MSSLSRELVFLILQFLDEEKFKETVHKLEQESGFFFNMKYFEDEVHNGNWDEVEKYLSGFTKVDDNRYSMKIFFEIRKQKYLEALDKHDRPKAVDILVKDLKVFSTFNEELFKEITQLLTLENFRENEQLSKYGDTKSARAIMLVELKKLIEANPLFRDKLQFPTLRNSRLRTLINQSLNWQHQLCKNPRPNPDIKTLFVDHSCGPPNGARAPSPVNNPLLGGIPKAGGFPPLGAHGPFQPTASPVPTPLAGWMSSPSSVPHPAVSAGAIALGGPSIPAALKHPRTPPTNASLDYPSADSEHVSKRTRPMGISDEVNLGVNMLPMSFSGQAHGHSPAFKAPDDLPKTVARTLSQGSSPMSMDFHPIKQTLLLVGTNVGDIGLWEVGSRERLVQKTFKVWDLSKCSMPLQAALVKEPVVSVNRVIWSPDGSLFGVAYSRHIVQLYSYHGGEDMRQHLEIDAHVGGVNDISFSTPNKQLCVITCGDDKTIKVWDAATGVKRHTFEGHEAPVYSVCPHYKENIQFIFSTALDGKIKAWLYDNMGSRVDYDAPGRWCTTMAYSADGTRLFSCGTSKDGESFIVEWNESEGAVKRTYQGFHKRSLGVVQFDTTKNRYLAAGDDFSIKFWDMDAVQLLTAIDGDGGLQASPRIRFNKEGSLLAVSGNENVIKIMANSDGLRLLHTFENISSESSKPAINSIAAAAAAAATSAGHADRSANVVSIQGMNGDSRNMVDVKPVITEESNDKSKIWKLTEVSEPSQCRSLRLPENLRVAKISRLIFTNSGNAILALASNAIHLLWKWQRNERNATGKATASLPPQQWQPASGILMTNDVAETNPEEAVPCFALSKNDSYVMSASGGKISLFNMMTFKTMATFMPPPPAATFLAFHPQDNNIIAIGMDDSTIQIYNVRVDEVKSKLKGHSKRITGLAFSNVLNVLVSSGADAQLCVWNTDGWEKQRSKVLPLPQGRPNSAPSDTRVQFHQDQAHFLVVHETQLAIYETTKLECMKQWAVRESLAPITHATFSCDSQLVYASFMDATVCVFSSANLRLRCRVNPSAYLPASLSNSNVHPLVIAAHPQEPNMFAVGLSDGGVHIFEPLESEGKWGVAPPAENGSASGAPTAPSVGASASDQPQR

[4] = biological target: HA-WT IAA3/SHY2 transiently expressed in Nicotiana benthamiana (Arabidopsis thaliana) (UniProt Q38822); assay: anti-HA immunoprecipitation + non-reducing SDS-PAGE immunoblot
[5] = biological target: HA-WT IAA3/SHY2 expressed in transgenic Arabidopsis thaliana (Arabidopsis thaliana) (UniProt Q38822); assay: as above

- binding [1]: binds
B1: IAA3/SHY2 Cys187Ser (protein, UniProt Q38822 1-189)
chain: MDEFVNLKETELRLGLPGTDNVCEAKERVSCCNNNNKRVLSTDTEKEIESSSRKTETSPPRKAQIVGWPPVRSYRKNNIQSKKNESEHEGQGIYVKVSMDGAPYLRKIDLSCYKGYSELLKALEVMFKFSVGEYFERDGYKGSDFVPTYEDKDGDWMLIGDVPWEMFICTCKRLRIMKGSEAKGLGSGV

- binding [4]: binds
- binding (TIR1-GFP): binds
- binding (ARF7-GFP (wild type)): binds
- binding [3]: binds
B4: HA-WT IAA3/SHY2 transiently expressed in Nicotiana benthamiana (protein, UniProt Q38822 1-189)
chain: B1 chain with S187C

- binding [5]: binds
B5: HA-WT IAA3/SHY2 expressed in transgenic Arabidopsis thaliana (protein, UniProt Q38822 1-189)
chain: B1 chain with S187C

The remaining lines, values behind:

B2: MBP-tagged IAA3/SHY2 (wild type), recombinant (natural protein, Arabidopsis thaliana, UniProt Q38822 1-189, looked up)
chain: B1 chain with S187C
- binding [2]: no binding (condition: with 7.5mM DTT)

B3: HA-4C/S IAA3/SHY2 transiently expressed in Nicotiana benthamiana (protein, UniProt Q38822 1-189)
chain: B1 chain with C32S, C112S, C169S
- binding (TIR1-GFP): binds
- binding (ARF7-GFP (wild type)): binds
- binding [3]: binds

Reference: paper doi:10.1101/2024.02.12.579961 (bioRxiv, 2024)
